Literature values in US20070071706A1, “Lipodissolving dermatological topical preparation” (priority 2005, published 2007).
At least one compound was matched to its structure with a doubt left.

Test system: fat cell aggregates
Settings: once in contact with such cells

C[C@H](CCC(=O)O)[C@H]1CC[C@H]2[C@@H]3CC[C@@H]4C[C@H](O)CC[C@]4(C)[C@H]3C[C@H](O)[C@]12C [Deoxycholic acid]
dissolving fat cell aggregates: capability of dissolving fat cell aggregates
